Results reported in publication PMC11387770.
Results are given in words; binding and its absence hold for the method and conditions named. Binding seen in cells or lysates may run through a third protein. Some entries that bind do so weakly or less than the wild type. For some of these results: Tags and fused reporters may be left off the sequences shown.

Chains of the proteins cited; added tags and fusions are not shown. Lines headed by an entry give the natural chain unless they say otherwise; changes in a name come on top.
UniProt Q9BPZ7: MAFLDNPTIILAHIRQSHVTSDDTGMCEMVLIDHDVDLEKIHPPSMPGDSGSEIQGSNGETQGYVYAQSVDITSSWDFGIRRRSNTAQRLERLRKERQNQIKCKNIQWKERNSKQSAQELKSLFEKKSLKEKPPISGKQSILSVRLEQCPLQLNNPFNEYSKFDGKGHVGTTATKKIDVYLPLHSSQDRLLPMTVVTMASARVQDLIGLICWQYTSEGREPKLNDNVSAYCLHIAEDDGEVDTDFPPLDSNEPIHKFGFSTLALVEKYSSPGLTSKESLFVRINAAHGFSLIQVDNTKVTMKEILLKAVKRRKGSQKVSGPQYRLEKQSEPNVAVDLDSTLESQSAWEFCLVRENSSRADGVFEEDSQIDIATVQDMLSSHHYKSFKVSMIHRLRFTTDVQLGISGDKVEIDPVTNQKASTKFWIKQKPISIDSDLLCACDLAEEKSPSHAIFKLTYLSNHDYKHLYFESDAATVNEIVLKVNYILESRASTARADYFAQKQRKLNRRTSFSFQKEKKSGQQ

Legend:
[1] = molecular target: stress-activated protein kinase interacting protein 1 (SIN1) (human (endogenous in 293T)) (UniProt Q9BPZ7); assay: co-IP; 293T cells with or without overexpressed CRLF1; precipitation with antibodies against AKT or SIN1 and protein A Sepharose beads; IP buffer 20 mM Tris pH 7.5, 150 mM NaCl, 1% Triton X-100, 1 mM EDTA; also with CRLF1 knock-down (Fig. 7C)
[2] = molecular target: SIN1, ectopically expressed with CRLF1 variants (UniProt Q9BPZ7); assay: co-IP; CRLF1 variants ectopically expressed with either AKT or SIN1 (Fig. 7H-J); which partner was precipitated is not told

B1: cytokine receptor-like factor 1 (CRLF1), full length, C-terminal His-tagged (protein, UniProt O75462 38-422)
chain: AHTAVISPQDPTLLIGSSLLATCSVHGDPPGATAEGLYWTLNGRRLPPELSRVLNASTLALALANLNGSRQRSGDNLVCHARDGSILAGSCLYVGLPPEKPVNISCWSKNMKDLTCRWTPGAHGETFLHTNYSLKYKLRWYGQDNTCEEYHTVGPHSCHIPKDLALFTPYEIWVEATNRLGSARSDVLTLDILDVVTTDPPPDVHVSRVGGLEDQLSVRWVSPPALKDFLFQAKYQIRYRVEDSVDWKVVDDVSNQTSCRLAGLKPGTVYFVQVRCNPFGIYGSKKAGIWSEWSHPTAASTPRSERPGPGGGACEPRGGEPSSGPVRRELKQFLGWLKKHAYCSNLSFRLYDQWRAWMQKSHKTRNQDEGILPSGRRGTARGPAR
binding [1]: binds

B2: CRLF1 aa 1-326 (lacking the WSXWS motif) (domain or fragment, UniProt O75462 38-326)
chain: AHTAVISPQDPTLLIGSSLLATCSVHGDPPGATAEGLYWTLNGRRLPPELSRVLNASTLALALANLNGSRQRSGDNLVCHARDGSILAGSCLYVGLPPEKPVNISCWSKNMKDLTCRWTPGAHGETFLHTNYSLKYKLRWYGQDNTCEEYHTVGPHSCHIPKDLALFTPYEIWVEATNRLGSARSDVLTLDILDVVTTDPPPDVHVSRVGGLEDQLSVRWVSPPALKDFLFQAKYQIRYRVEDSVDWKVVDDVSNQTSCRLAGLKPGTVYFVQVRCNPFGIYGSKKAGI
binding [2]: binds

B3: CRLF1 aa 237-326 (domain or fragment, UniProt O75462 237-326)
chain: PPPDVHVSRVGGLEDQLSVRWVSPPALKDFLFQAKYQIRYRVEDSVDWKVVDDVSNQTSCRLAGLKPGTVYFVQVRCNPFGIYGSKKAGI
binding [2]: binds

B4: CRLF1 aa 132-236 (domain or fragment, UniProt O75462 132-236)
chain: GLPPEKPVNISCWSKNMKDLTCRWTPGAHGETFLHTNYSLKYKLRWYGQDNTCEEYHTVGPHSCHIPKDLALFTPYEIWVEATNRLGSARSDVLTLDILDVVTTD
binding [2]: no binding
